{"sequences": {"note": "Amino acid sequences for entries named in this document (tags omitted).", "ECPAS, Q5VYK3, UniProt Q5VYK3, whole entry": "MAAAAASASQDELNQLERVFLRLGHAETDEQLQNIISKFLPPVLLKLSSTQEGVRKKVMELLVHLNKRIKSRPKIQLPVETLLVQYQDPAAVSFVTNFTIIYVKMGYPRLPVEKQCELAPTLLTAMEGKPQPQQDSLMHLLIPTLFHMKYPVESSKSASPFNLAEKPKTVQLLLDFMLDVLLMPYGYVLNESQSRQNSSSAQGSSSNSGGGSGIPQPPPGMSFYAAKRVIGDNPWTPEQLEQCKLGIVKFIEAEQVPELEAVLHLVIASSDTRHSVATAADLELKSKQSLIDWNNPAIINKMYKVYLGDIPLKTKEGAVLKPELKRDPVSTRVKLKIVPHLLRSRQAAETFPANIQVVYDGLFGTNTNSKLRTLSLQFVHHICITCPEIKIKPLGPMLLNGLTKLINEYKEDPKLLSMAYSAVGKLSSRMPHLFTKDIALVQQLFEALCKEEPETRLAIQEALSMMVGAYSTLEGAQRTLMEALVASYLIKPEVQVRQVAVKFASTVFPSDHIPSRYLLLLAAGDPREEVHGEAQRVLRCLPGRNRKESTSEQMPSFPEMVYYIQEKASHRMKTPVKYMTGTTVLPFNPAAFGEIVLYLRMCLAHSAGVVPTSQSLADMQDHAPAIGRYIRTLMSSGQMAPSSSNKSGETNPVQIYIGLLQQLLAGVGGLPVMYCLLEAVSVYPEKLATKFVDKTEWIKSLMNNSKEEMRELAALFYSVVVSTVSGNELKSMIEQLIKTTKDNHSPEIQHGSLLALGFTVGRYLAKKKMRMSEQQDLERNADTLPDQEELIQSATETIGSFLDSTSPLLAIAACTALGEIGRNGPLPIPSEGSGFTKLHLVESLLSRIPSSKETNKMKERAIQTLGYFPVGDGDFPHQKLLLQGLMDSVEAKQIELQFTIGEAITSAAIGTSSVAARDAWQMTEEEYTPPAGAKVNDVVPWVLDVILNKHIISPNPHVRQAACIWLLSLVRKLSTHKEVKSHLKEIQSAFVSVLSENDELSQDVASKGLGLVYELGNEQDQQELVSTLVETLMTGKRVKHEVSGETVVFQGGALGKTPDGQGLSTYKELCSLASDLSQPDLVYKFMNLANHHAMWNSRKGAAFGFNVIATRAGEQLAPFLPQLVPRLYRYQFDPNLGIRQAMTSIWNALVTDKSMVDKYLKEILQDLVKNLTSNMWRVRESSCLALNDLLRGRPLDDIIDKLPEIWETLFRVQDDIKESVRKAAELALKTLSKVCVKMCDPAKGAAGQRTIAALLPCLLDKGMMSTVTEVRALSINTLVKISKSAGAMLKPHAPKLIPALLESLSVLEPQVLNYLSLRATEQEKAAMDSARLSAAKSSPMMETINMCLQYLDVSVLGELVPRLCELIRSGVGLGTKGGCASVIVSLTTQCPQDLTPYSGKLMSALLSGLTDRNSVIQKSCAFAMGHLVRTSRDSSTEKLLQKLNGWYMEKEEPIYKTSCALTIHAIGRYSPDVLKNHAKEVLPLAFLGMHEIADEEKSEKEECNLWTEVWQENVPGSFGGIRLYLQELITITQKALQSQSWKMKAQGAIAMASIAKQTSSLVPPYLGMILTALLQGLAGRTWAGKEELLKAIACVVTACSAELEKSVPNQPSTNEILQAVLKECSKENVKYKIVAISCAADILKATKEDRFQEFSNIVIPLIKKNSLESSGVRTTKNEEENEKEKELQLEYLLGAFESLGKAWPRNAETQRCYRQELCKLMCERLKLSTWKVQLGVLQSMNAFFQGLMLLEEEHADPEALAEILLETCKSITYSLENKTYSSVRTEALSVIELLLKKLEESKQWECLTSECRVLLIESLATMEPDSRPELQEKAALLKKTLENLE", "EIF3D, O15371, UniProt O15371, whole entry": "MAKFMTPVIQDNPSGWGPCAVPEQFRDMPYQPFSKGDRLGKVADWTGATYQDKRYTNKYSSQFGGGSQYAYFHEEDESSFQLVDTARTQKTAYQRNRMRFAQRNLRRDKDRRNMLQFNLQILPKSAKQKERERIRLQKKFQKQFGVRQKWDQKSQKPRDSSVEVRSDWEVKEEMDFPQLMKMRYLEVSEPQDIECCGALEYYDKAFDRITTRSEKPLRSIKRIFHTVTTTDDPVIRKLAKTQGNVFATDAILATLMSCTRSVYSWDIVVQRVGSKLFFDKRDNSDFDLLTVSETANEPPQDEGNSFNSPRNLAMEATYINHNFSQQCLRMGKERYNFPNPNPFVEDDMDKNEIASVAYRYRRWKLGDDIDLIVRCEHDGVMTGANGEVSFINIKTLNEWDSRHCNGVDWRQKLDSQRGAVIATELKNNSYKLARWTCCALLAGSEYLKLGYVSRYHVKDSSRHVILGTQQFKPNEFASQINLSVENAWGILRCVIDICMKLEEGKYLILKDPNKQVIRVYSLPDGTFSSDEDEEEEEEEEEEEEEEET", "FLNA, P21333, UniProt P21333, whole entry": "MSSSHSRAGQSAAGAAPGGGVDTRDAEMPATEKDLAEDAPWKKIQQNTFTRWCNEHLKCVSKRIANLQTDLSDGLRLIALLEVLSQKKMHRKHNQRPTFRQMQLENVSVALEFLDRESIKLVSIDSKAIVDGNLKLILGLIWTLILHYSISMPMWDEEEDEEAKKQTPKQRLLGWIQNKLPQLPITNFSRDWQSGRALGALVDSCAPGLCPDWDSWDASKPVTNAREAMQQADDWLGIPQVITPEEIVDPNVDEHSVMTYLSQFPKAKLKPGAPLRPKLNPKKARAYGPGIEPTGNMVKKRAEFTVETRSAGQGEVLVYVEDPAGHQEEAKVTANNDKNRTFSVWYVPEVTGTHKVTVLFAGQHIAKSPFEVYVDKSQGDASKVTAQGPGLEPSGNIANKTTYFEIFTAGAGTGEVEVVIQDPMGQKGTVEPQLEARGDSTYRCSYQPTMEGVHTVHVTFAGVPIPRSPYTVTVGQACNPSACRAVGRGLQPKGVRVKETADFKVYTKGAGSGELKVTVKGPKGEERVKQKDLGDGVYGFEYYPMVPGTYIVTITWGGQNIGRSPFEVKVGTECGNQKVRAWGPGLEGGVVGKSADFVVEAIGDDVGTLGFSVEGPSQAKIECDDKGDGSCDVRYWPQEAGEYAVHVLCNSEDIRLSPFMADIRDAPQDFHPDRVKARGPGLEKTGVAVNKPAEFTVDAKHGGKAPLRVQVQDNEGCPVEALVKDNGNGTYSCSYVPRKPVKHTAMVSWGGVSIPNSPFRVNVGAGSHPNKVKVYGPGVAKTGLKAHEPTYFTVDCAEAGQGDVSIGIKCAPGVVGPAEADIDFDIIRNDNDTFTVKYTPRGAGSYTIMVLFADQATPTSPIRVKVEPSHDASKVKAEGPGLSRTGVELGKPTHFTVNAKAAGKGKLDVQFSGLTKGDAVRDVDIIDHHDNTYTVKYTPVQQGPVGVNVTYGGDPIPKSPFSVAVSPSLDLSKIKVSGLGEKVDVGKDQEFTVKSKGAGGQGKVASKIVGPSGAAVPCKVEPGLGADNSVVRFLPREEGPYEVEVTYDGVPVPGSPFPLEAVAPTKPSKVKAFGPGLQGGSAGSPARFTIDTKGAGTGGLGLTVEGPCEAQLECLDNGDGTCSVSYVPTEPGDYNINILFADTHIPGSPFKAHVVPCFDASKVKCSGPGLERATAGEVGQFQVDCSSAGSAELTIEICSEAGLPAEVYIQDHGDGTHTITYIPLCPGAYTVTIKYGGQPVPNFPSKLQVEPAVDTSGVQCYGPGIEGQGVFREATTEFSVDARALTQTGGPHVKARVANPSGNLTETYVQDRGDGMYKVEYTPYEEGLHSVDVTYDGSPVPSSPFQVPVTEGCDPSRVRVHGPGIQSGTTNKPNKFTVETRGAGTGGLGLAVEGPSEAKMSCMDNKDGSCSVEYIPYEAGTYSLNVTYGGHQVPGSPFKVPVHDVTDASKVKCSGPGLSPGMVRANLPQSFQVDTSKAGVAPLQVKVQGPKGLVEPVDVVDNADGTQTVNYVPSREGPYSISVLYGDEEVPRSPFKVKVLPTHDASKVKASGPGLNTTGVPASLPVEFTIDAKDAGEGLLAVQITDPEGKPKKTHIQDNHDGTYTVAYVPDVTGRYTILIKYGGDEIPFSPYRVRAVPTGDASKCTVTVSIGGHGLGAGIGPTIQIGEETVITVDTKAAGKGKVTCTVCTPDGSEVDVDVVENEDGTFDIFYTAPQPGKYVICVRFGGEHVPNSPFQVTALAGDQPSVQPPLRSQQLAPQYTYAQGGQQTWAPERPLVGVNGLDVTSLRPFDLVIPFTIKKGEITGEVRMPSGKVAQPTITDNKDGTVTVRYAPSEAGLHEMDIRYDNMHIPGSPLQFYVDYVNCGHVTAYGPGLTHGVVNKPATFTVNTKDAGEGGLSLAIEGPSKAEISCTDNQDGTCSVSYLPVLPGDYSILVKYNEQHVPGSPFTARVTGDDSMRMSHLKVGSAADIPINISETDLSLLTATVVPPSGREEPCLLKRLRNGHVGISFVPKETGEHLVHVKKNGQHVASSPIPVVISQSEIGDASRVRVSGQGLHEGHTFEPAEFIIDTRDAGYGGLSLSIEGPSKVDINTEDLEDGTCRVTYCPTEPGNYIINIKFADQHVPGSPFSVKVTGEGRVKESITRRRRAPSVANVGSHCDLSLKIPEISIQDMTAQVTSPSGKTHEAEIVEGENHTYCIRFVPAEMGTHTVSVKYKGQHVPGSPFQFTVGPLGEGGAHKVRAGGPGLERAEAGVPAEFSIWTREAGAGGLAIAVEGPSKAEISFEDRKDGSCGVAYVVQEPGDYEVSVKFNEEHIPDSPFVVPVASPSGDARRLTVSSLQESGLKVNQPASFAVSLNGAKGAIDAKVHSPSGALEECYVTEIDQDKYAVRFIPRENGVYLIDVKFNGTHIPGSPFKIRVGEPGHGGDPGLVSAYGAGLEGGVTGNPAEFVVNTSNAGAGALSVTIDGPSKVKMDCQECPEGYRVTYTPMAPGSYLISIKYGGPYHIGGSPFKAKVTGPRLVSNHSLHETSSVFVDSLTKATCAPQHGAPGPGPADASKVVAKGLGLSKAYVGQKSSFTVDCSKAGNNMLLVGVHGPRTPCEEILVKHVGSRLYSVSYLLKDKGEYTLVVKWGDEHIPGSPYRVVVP", "HSPA6, P17066, UniProt P17066, whole entry": "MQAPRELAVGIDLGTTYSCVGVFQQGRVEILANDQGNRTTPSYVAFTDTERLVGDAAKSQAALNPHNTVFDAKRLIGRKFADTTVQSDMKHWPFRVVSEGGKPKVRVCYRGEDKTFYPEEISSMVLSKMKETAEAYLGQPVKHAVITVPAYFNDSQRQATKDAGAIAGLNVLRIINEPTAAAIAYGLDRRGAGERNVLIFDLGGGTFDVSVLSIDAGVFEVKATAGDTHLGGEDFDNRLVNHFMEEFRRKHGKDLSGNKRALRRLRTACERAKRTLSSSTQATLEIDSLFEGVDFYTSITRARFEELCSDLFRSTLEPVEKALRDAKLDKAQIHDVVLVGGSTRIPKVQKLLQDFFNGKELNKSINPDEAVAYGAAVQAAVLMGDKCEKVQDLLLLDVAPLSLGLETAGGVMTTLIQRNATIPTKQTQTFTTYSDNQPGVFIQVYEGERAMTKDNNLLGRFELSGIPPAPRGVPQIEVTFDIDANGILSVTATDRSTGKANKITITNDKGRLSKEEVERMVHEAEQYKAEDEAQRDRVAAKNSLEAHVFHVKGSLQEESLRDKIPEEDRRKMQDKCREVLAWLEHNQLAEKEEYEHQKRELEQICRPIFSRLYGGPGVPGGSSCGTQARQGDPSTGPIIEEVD", "NCAPH, Q15003, UniProt Q15003, whole entry": "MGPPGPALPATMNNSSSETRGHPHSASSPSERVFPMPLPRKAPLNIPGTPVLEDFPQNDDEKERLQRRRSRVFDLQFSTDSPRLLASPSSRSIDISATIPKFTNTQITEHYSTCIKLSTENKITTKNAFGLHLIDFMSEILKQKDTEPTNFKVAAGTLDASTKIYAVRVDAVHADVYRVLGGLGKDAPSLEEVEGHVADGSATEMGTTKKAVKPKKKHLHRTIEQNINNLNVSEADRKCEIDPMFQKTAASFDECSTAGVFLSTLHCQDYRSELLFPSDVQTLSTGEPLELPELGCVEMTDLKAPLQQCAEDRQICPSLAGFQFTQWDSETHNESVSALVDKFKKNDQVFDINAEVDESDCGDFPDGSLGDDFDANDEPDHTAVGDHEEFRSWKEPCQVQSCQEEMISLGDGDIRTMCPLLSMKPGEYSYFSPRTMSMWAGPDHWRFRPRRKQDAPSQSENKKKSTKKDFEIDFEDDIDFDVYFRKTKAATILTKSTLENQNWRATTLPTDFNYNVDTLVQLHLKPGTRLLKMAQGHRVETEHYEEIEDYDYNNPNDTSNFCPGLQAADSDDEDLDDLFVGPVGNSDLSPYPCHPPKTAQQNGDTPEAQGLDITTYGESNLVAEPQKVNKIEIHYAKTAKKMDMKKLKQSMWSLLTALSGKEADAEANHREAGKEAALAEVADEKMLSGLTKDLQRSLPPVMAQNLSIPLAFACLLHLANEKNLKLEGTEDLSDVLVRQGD"}, "source": "the supplement of paper PMC10032668", "binders": {"B1": {"name": "PVT1 (peptide)", "chain": "PRHLPVDFLAERMLA"}}, "test_in_all_cases": "PRISMA enrichment of interactor (LFQ) in peptide spot vs all other peptide spots (log2 fold change); higher = stronger / more specific binding of the interactor to the peptide", "key": {"[1]": {"target": "ACACA, Q13085", "procedure": "(§1)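 PRISMA: 15-aa overlapping tiles (offset 8 aa) of 60 microproteins, plus SOS1/GLUT1 control peptides, were spot-synthesized on cellulose membranes in triplicate. Membranes were incubated with benzonase-treated HEK293T lysate, and bound proteins were identified by LC-MS/MS with LFQ. Enrichment is the log2 fold change of each protein in one spot versus all other spots. Only interactors passing the significance cutoff are listed.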"}, "[2]": {"target": "CBSL", "procedure": "as §1"}, "[3]": {"target": "CHD1, O14646", "procedure": "as §1"}, "[4]": {"target": "COPZ1, P61923", "procedure": "as §1"}, "[5]": {"substrate": "CS, O75390", "procedure": "as §1"}, "[6]": {"target": "CTPS1, P17812", "procedure": "as §1"}, "[7]": {"target": "ECPAS, Q5VYK3", "procedure": "as §1"}, "[8]": {"target": "EIF3D, O15371", "procedure": "as §1"}, "[9]": {"target": "FLNA, P21333", "procedure": "as §1"}, "[10]": {"target": "FLOT1, O75955", "procedure": "as §1"}, "[11]": {"target": "GAR1, Q9NY12", "procedure": "as §1"}, "[12]": {"target": "GPD1L, Q8N335", "procedure": "as §1"}, "[13]": {"target": "GTF3C5, Q9Y5Q8", "procedure": "as §1"}, "[14]": {"target": "HSPA6, P17066", "procedure": "as §1"}, "[15]": {"target": "LRRC59, Q96AG4", "procedure": "as §1"}, "[16]": {"target": "MAGT1, Q9H0U3", "procedure": "as §1"}, "[17]": {"target": "MRPS9, P82933", "procedure": "as §1"}, "[18]": {"target": "MRTO4, Q9UKD2", "procedure": "as §1"}, "[19]": {"target": "NCAPH, Q15003", "procedure": "as §1"}, "[20]": {"target": "NOB1, Q9ULX3", "procedure": "as §1"}, "[21]": {"target": "NUP93, Q8N1F7", "procedure": "as §1"}, "[22]": {"target": "ORC3, Q9UBD5", "procedure": "as §1"}, "[23]": {"target": "PDAP1, Q13442", "procedure": "as §1"}, "[24]": {"target": "PRPF4B", "procedure": "as §1"}, "[25]": {"target": "PSMC1, P62191", "procedure": "as §1"}, "[26]": {"target": "RAN, P62826", "procedure": "as §1"}, "[27]": {"target": "RANBP2, P49792", "procedure": "as §1"}, "[28]": {"target": "SLC25A24, Q6NUK1", "procedure": "as §1"}, "[29]": {"target": "SMARCE1, Q969G3", "procedure": "as §1"}, "[30]": {"target": "UTP18, Q9Y5J1", "procedure": "as §1"}, "[31]": {"target": "VARS, P26640", "procedure": "as §1"}, "[32]": {"target": "XPO7, Q9UIA9", "procedure": "as §1"}}, "note": "Some of the results follow. The list holds hits alone, and they repeat only in part.", "data": [{"binder": "B1", "values": [{"measurement": "PRISMA enrichment of interactor (log2)", "setting": "[1]", "value": 4.81}, {"measurement": "PRISMA enrichment of interactor (log2)", "setting": "[2]", "value": 9.07}, {"measurement": "PRISMA enrichment of interactor (log2)", "setting": "[3]", "value": 5.53}, {"measurement": "PRISMA enrichment of interactor (log2)", "setting": "[4]", "value": 4.62}, {"measurement": "PRISMA enrichment of interactor (log2)", "setting": "[5]", "value": 6.89}, {"measurement": "PRISMA enrichment of interactor (log2)", "setting": "[6]", "value": 5.02}, {"measurement": "PRISMA enrichment of interactor (log2)", "setting": "[7]", "value": 5.25}, {"measurement": "PRISMA enrichment of interactor (log2)", "setting": "[8]", "value": 6.45}, {"measurement": "PRISMA enrichment of interactor (log2)", "setting": "[9]", "value": 5.25}, {"measurement": "PRISMA enrichment of interactor (log2)", "setting": "[10]", "value": 7.59}, {"measurement": "PRISMA enrichment of interactor (log2)", "setting": "[11]", "value": 6.95}, {"measurement": "PRISMA enrichment of interactor (log2)", "setting": "[12]", "value": 9.76}, {"measurement": "PRISMA enrichment of interactor (log2)", "setting": "[13]", "value": 6.73}, {"measurement": "PRISMA enrichment of interactor (log2)", "setting": "[14]", "value": 6.51}, {"measurement": "PRISMA enrichment of interactor (log2)", "setting": "[15]", "value": 5.43}, {"measurement": "PRISMA enrichment of interactor (log2)", "setting": "[16]", "value": 6.9}, {"measurement": "PRISMA enrichment of interactor (log2)", "setting": "[17]", "value": 5.12}, {"measurement": "PRISMA enrichment of interactor (log2)", "setting": "[18]", "value": 5.5}, {"measurement": "PRISMA enrichment of interactor (log2)", "setting": "[19]", "value": 5.1}, {"measurement": "PRISMA enrichment of interactor (log2)", "setting": "[20]", "value": 5.89}, {"measurement": "PRISMA enrichment of interactor (log2)", "setting": "[21]", "value": 4.97}, {"measurement": "PRISMA enrichment of interactor (log2)", "setting": "[22]", "value": 4.67}, {"measurement": "PRISMA enrichment of interactor (log2)", "setting": "[23]", "value": 5.87}, {"measurement": "PRISMA enrichment of interactor (log2)", "setting": "[24]", "value": 8.61}, {"measurement": "PRISMA enrichment of interactor (log2)", "setting": "[25]", "value": 6.51}, {"measurement": "PRISMA enrichment of interactor (log2)", "setting": "[26]", "value": 4.97}, {"measurement": "PRISMA enrichment of interactor (log2)", "setting": "[27]", "value": 5.19}, {"measurement": "PRISMA enrichment of interactor (log2)", "setting": "[28]", "value": 5.7}, {"measurement": "PRISMA enrichment of interactor (log2)", "setting": "[29]", "value": 6.28}, {"measurement": "PRISMA enrichment of interactor (log2)", "setting": "[30]", "value": 12.3}, {"measurement": "PRISMA enrichment of interactor (log2)", "setting": "[31]", "value": 4.48}, {"measurement": "PRISMA enrichment of interactor (log2)", "setting": "[32]", "value": 8.85}]}]}
